The source of these data is publication PMC10258333.

These are yes or no findings as the source states them, for the method shown. In cells and extracts the contact can be indirect. Some entries that bind do so weakly or less than the wild type. Tags and fused reporters may be left off the sequences shown.

Assay [1] deals with T1, HD2B fused to nYFP (Arabidopsis thaliana) (UniProt Q56WH4).
T1 sequence: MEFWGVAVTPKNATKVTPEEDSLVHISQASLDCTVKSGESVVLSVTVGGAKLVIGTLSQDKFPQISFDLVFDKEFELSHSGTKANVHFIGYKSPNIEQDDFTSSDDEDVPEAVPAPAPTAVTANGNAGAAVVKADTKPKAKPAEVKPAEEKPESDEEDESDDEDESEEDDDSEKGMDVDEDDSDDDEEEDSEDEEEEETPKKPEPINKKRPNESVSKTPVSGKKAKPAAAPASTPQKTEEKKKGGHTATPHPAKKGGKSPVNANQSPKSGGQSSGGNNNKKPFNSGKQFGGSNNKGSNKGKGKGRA
Briefly: split reporter; BiFC with nYFP and cYFP fusions from pBiFCt-2in1-NN in Arabidopsis protoplasts; YFP signal by confocal microscopy after 16 h to 24 h in the dark.

Assay [2] concerns the target T2, HD2B-GFP (Arabidopsis thaliana) (UniProt Q56WH4).
T2 sequence: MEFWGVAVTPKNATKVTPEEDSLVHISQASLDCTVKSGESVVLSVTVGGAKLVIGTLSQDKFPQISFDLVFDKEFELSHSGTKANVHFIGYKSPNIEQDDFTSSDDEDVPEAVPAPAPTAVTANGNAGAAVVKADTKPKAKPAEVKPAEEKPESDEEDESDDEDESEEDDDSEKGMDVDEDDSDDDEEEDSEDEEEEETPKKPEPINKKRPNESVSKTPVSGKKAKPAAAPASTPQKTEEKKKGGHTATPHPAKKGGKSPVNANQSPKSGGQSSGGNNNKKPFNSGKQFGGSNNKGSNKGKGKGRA
The experiment in a line: co-IP; HSI2-myc or HSL1-myc transiently expressed in protoplasts of HD2A-GFP or HD2B-GFP lines; total protein extract (50 mM Tris-HCl pH 8, 150 mM NaCl, 0.1% Nonidet P-40) on GFP-Trap agarose beads at 4°C overnight; immunoblot with anti-Myc antibody. Background: Immunoblotting shows a protein as a band on a membrane.

B1: HIGH-LEVEL EXPRESSION OF SUGAR INDUCIBLE2 (HSI2) fused to cYFP (protein, UniProt Q8W4L5 1-790)
chain: MFEVKMGSKMCMNASCGTTSTVEWKKGWPLRSGLLADLCYRCGSAYESSLFCEQFHKDQSGWRECYLCSKRLHCGCIASKVTIELMDYGGVGCSTCACCHQLNLNTRGENPGVFSRLPMKTLADRQHVNGESGGRNEGDLFSQPLVMGGDKREEFMPHRGFGKLMSPESTTTGHRLDAAGEMHESSPLQPSLNMGLAVNPFSPSFATEAVEGMKHISPSQSNMVHCSASNILQKPSRPAISTPPVASKSAQARIGRPPVEGRGRGHLLPRYWPKYTDKEVQQISGNLNLNIVPLFEKTLSASDAGRIGRLVLPKACAEAYFPPISQSEGIPLKIQDVRGREWTFQFRYWPNNNSRMYVLEGVTPCIQSMMLQAGDTVTFSRVDPGGKLIMGSRKAANAGDMQGCGLTNGTSTEDTSSSGVTENPPSINGSSCISLIPKELNGMPENLNSETNGGRIGDDPTRVKEKKRTRTIGAKNKRLLLHSEESMELRLTWEEAQDLLRPSPSVKPTIVVIEEQEIEEYDEPPVFGKRTIVTTKPSGEQERWATCDDCSKWRRLPVDALLSFKWTCIDNVWDVSRCSCSAPEESLKELENVLKVGREHKKRRTGESQAAKSQQEPCGLDALASAAVLGDTIGEPEVATTTRHPRHRAGCSCIVCIQPPSGKGRHKPTCGCTVCSTVKRRFKTLMMRRKKKQLERDVTAAEDKKKKDMELAESDKSKEEKEVNTARIDLNSDPYNKEDVEAVAVEKEESRKRAIGQCSGVVAQDASDVLGVTELEGEGKNVREEPRVSS
Turning to B1, the binding result in assay [1] is given as “binds”.

B2: HSI2-myc (protein, UniProt Q8W4L5 1-790)
chain: MFEVKMGSKMCMNASCGTTSTVEWKKGWPLRSGLLADLCYRCGSAYESSLFCEQFHKDQSGWRECYLCSKRLHCGCIASKVTIELMDYGGVGCSTCACCHQLNLNTRGENPGVFSRLPMKTLADRQHVNGESGGRNEGDLFSQPLVMGGDKREEFMPHRGFGKLMSPESTTTGHRLDAAGEMHESSPLQPSLNMGLAVNPFSPSFATEAVEGMKHISPSQSNMVHCSASNILQKPSRPAISTPPVASKSAQARIGRPPVEGRGRGHLLPRYWPKYTDKEVQQISGNLNLNIVPLFEKTLSASDAGRIGRLVLPKACAEAYFPPISQSEGIPLKIQDVRGREWTFQFRYWPNNNSRMYVLEGVTPCIQSMMLQAGDTVTFSRVDPGGKLIMGSRKAANAGDMQGCGLTNGTSTEDTSSSGVTENPPSINGSSCISLIPKELNGMPENLNSETNGGRIGDDPTRVKEKKRTRTIGAKNKRLLLHSEESMELRLTWEEAQDLLRPSPSVKPTIVVIEEQEIEEYDEPPVFGKRTIVTTKPSGEQERWATCDDCSKWRRLPVDALLSFKWTCIDNVWDVSRCSCSAPEESLKELENVLKVGREHKKRRTGESQAAKSQQEPCGLDALASAAVLGDTIGEPEVATTTRHPRHRAGCSCIVCIQPPSGKGRHKPTCGCTVCSTVKRRFKTLMMRRKKKQLERDVTAAEDKKKKDMELAESDKSKEEKEVNTARIDLNSDPYNKEDVEAVAVEKEESRKRAIGQCSGVVAQDASDVLGVTELEGEGKNVREEPRVSS
B2: the binding entry in assay [2] is listed as “binds”.

B3: HSI2-LIKE1 (HSL1) fused to cYFP (protein, UniProt Q5CCK4 1-780)
chain: MESIKVCMNALCGAASTSGEWKKGWPMRSGDLASLCDKCGCAYEQSIFCEVFHAKESGWRECNSCDKRLHCGCIASRFMMELLENGGVTCISCAKKSGLISMNVSHESNGKDFPSFASAEHVGSVLERTNLKHLLHFQRIDPTHSSLQMKQEESLLPSSLDALRHKTERKELSAQPNLSISLGPTLMTSPFHDAAVDDRSKTNSIFQLAPRSRQLLPKPANSAPIAAGMEPSGSLVSQIHVARPPPEGRGKTQLLPRYWPRITDQELLQLSGQYPHLSNSKIIPLFEKVLSASDAGRIGRLVLPKACAEAYFPPISLPEGLPLKIQDIKGKEWVFQFRFWPNNNSRMYVLEGVTPCIQSMQLQAGDTVTFSRTEPEGKLVMGYRKATNSTATQMFKGSSEPNLNMFSNSLNPGCGDINWSKLEKSEDMAKDNLFLQSSLTSARKRVRNIGTKSKRLLIDSVDVLELKITWEEAQELLRPPQSTKPSIFTLENQDFEEYDEPPVFGKRTLFVSRQTGEQEQWVQCDACGKWRQLPVDILLPPKWSCSDNLLDPGRSSCSAPDELSPREQDTLVRQSKEFKRRRLASSNEKLNQSQDASALNSLGNAGITTTGEQGEITVAATTKHPRHRAGCSCIVCSQPPSGKGKHKPSCTCTVCEAVKRRFRTLMLRKRNKGEAGQASQQAQSQSECRDETEVESIPAVELAAGENIDLNSDPGASRVSMMRLLQAAAFPLEAYLKQKAISNTAGEQQSSDMVSTEHGSSSAAQETEKDTTNGAHDPVN
For the molecule B3, the binding entry in assay [1] is “binds”.

B4: HSL1-myc (protein, UniProt Q5CCK4 1-780)
chain: MESIKVCMNALCGAASTSGEWKKGWPMRSGDLASLCDKCGCAYEQSIFCEVFHAKESGWRECNSCDKRLHCGCIASRFMMELLENGGVTCISCAKKSGLISMNVSHESNGKDFPSFASAEHVGSVLERTNLKHLLHFQRIDPTHSSLQMKQEESLLPSSLDALRHKTERKELSAQPNLSISLGPTLMTSPFHDAAVDDRSKTNSIFQLAPRSRQLLPKPANSAPIAAGMEPSGSLVSQIHVARPPPEGRGKTQLLPRYWPRITDQELLQLSGQYPHLSNSKIIPLFEKVLSASDAGRIGRLVLPKACAEAYFPPISLPEGLPLKIQDIKGKEWVFQFRFWPNNNSRMYVLEGVTPCIQSMQLQAGDTVTFSRTEPEGKLVMGYRKATNSTATQMFKGSSEPNLNMFSNSLNPGCGDINWSKLEKSEDMAKDNLFLQSSLTSARKRVRNIGTKSKRLLIDSVDVLELKITWEEAQELLRPPQSTKPSIFTLENQDFEEYDEPPVFGKRTLFVSRQTGEQEQWVQCDACGKWRQLPVDILLPPKWSCSDNLLDPGRSSCSAPDELSPREQDTLVRQSKEFKRRRLASSNEKLNQSQDASALNSLGNAGITTTGEQGEITVAATTKHPRHRAGCSCIVCSQPPSGKGKHKPSCTCTVCEAVKRRFRTLMLRKRNKGEAGQASQQAQSQSECRDETEVESIPAVELAAGENIDLNSDPGASRVSMMRLLQAAAFPLEAYLKQKAISNTAGEQQSSDMVSTEHGSSSAAQETEKDTTNGAHDPVN
Turning to B4, in assay [2], the binding entry is given as “binds”.
